Results from doi:10.1101/2023.08.23.554426.
These are yes or no findings as the source states them, for the method shown. A result given as binding can be weak or reduced; the word gives no strength.

Protein sequences, listed by entry. Tags and fused reporters are not part of them.
UniProt P62344, whole entry: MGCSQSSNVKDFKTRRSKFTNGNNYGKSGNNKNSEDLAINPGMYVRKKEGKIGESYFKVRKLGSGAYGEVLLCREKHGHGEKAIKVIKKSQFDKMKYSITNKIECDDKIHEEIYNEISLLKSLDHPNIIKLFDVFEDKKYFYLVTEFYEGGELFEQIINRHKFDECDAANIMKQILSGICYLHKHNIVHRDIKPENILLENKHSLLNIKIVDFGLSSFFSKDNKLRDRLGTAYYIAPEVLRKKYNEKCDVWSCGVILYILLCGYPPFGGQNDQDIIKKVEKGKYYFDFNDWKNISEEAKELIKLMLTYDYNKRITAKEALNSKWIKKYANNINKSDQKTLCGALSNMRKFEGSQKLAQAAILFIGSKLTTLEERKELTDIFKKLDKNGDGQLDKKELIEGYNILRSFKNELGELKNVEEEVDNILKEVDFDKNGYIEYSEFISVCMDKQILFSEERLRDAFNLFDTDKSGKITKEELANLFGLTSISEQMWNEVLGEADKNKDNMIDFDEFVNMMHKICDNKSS

Target: recombinant Plasmodium falciparum calcium-dependent protein kinase 1 (PfCDPK1) (P. falciparum) (UniProt P62344)
Assay: ELISA

Substance: recombinant Plasmodium falciparum Raf kinase inhibitor protein (PfRKIP), wild type (from UniProt P54189)
- binding: binds
